Test results as given in patent US20080064632A1, “Combination Therapy for the Treatment of Obesity” (priority 2004, published 2008).

Tested on: DIO mice
Assay: Combination of PYY3-36 and CB-1 inverse agonist AM-251 on food intake and bodyweight in DIO mice (Example 2)
Format: in vivo, Male C57BL6 mice
Settings: PYY3-36 1 mpk (IP), AM251 1 mpk (PO), alone or co-administered

For `Cc1c(C(=O)NN2CCCCC2)nn(-c2ccc(Cl)cc2Cl)c1-c1ccc(I)cc1` [AM251], the “4-hour FI” value was −42% and the “16-hour FI” value was −23%.
